Reference: paper PMC4792581
These are yes or no findings as the source states them, for the method shown. For some of these results: In cells and extracts the contact can be indirect. Some results given as binding are weak or reduced against the parent protein; the word gives no strength.

By UniProt entry, the sequences of proteins in these tests, tags left out.
UniProt P49427: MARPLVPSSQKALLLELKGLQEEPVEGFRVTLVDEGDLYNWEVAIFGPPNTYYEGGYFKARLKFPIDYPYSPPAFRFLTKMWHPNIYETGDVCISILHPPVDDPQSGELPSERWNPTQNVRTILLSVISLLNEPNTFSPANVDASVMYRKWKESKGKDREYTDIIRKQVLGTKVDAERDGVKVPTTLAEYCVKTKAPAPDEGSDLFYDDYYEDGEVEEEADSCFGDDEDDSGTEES
UniProt P10415: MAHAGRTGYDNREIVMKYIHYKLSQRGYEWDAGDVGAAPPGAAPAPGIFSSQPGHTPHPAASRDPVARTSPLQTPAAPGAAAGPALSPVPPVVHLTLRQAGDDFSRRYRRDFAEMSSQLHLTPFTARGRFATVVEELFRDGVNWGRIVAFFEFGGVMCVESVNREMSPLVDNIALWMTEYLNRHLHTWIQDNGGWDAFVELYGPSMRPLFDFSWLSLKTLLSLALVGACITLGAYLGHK

Legend:
recombinant UbcH3 = recombinant UbcH3 (UniProt P49427); test: pull-down; Ni-NTA pull-down, in vitro binding of PPARα with recombinant UbcH3; which of the two was held on the resin is not stated; both purified
[1] = target: Bcl2 (B-cell lymphoma 2), endogenous (human (endogenous in human cell lines)) (UniProt P10415); test: co-IP; immunoprecipitation from cell lysates and Western blot, endogenous proteins; cell line and precipitating antibody not stated
[2] = target: Bcl2 (B-cell lymphoma 2), endogenous (human (endogenous in human cell lines)) (UniProt P10415); test: co-IP; HEK293T transfected with vector, PPARα or PPARα/C102A; lysates immunoprecipitated and blotted; in Figure 3D 36 h, with MG132 (10 μM) for 6 h before lysis

Binder	binding [2]	also measured
PPARα used in the in vitro Ni-NTA pull-down (protein, UniProt Q07869 1-468) MVDTESPLCPLSPLEAGDLESPLSEEFLQEMGNIQEISQSIGEDSSGSFGFTEYQYLGSCPGSDGSVITDTLSPASSPSSVTYPVVPGSVDESPSGALNIECRICGDKASGYHYGVHACEGCKGFFRRTIRLKLVYDKCDRSCKIQKKNRNKCQYCRFHKCLSVGMSHNAIRFGRMPRSEKAKLKAEILTCEHDIEDSETADLKSLAKRIYEAYLKNFNMNKVKARVILSGKASNNPPFVIHDMETLCMAEKTLVAKLVANGIQNKEAEVRIFHCCQCTSVETVTELTEFAKAIPGFANLDLNDQVTLLKYGVYEAIFAMLSSVMNKDGMLVAYGNGFITREFLKSLRKPFCDIMEPKFDFAMKFNALELDDSDISLFVAAIICCGDRPGLLNVGHIEKMQEGIVHVLRLHLQSNHPDDIFLFPKLLQKMADLRQLVTEHAQLVQIIKKTESDAALHPLLQEIYRDMY	–	binding (recombinant UbcH3): binds
PPARα (peroxisome-proliferator-activated receptor α), endogenous (protein, UniProt Q07869 1-468) MVDTESPLCPLSPLEAGDLESPLSEEFLQEMGNIQEISQSIGEDSSGSFGFTEYQYLGSCPGSDGSVITDTLSPASSPSSVTYPVVPGSVDESPSGALNIECRICGDKASGYHYGVHACEGCKGFFRRTIRLKLVYDKCDRSCKIQKKNRNKCQYCRFHKCLSVGMSHNAIRFGRMPRSEKAKLKAEILTCEHDIEDSETADLKSLAKRIYEAYLKNFNMNKVKARVILSGKASNNPPFVIHDMETLCMAEKTLVAKLVANGIQNKEAEVRIFHCCQCTSVETVTELTEFAKAIPGFANLDLNDQVTLLKYGVYEAIFAMLSSVMNKDGMLVAYGNGFITREFLKSLRKPFCDIMEPKFDFAMKFNALELDDSDISLFVAAIICCGDRPGLLNVGHIEKMQEGIVHVLRLHLQSNHPDDIFLFPKLLQKMADLRQLVTEHAQLVQIIKKTESDAALHPLLQEIYRDMY	–	binding [1]: binds
PPARα, overexpressed from pcDNA3 (protein, UniProt Q07869 1-468) MVDTESPLCPLSPLEAGDLESPLSEEFLQEMGNIQEISQSIGEDSSGSFGFTEYQYLGSCPGSDGSVITDTLSPASSPSSVTYPVVPGSVDESPSGALNIECRICGDKASGYHYGVHACEGCKGFFRRTIRLKLVYDKCDRSCKIQKKNRNKCQYCRFHKCLSVGMSHNAIRFGRMPRSEKAKLKAEILTCEHDIEDSETADLKSLAKRIYEAYLKNFNMNKVKARVILSGKASNNPPFVIHDMETLCMAEKTLVAKLVANGIQNKEAEVRIFHCCQCTSVETVTELTEFAKAIPGFANLDLNDQVTLLKYGVYEAIFAMLSSVMNKDGMLVAYGNGFITREFLKSLRKPFCDIMEPKFDFAMKFNALELDDSDISLFVAAIICCGDRPGLLNVGHIEKMQEGIVHVLRLHLQSNHPDDIFLFPKLLQKMADLRQLVTEHAQLVQIIKKTESDAALHPLLQEIYRDMY	binds	–
PPARα/C102A mutant (protein, UniProt Q07869 1-468) MVDTESPLCPLSPLEAGDLESPLSEEFLQEMGNIQEISQSIGEDSSGSFGFTEYQYLGSCPGSDGSVITDTLSPASSPSSVTYPVVPGSVDESPSGALNIEARICGDKASGYHYGVHACEGCKGFFRRTIRLKLVYDKCDRSCKIQKKNRNKCQYCRFHKCLSVGMSHNAIRFGRMPRSEKAKLKAEILTCEHDIEDSETADLKSLAKRIYEAYLKNFNMNKVKARVILSGKASNNPPFVIHDMETLCMAEKTLVAKLVANGIQNKEAEVRIFHCCQCTSVETVTELTEFAKAIPGFANLDLNDQVTLLKYGVYEAIFAMLSSVMNKDGMLVAYGNGFITREFLKSLRKPFCDIMEPKFDFAMKFNALELDDSDISLFVAAIICCGDRPGLLNVGHIEKMQEGIVHVLRLHLQSNHPDDIFLFPKLLQKMADLRQLVTEHAQLVQIIKKTESDAALHPLLQEIYRDMY	no binding	–
